# Data as given in article PMC10086757.
# Chains of the proteins cited; added tags and fusions are not shown.
# UniProt O60260: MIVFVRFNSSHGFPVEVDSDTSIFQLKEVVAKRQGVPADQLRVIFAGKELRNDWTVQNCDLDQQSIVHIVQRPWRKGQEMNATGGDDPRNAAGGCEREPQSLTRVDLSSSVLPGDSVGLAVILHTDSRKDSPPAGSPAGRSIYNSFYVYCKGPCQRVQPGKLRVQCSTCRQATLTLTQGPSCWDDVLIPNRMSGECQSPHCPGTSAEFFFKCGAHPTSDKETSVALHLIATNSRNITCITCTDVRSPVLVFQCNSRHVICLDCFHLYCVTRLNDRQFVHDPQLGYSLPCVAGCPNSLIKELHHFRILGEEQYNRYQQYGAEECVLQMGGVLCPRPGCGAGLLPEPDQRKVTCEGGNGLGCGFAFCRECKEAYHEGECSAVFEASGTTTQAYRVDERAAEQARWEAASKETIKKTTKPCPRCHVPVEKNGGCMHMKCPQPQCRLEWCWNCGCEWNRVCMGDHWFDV
# Results are given in words; binding and its absence hold for the method and conditions named. For part of these data: Binding seen in cells or lysates may run through a third protein. Some results given as binding are weak or reduced against the parent protein; the word gives no strength. For part of these data: Sequences can lack the tags named with a protein.
# Experiments:
# Flag-Vdr (293T) = molecular target: T1, Flag-Vdr (293T) (UniProt P11473); experiment: co-IP; tagged proteins overexpressed in 293T (HEK293T) cells; RIPA buffer, antibody overnight, Protein A/G magnetic beads, immunoblot
# T1 sequence: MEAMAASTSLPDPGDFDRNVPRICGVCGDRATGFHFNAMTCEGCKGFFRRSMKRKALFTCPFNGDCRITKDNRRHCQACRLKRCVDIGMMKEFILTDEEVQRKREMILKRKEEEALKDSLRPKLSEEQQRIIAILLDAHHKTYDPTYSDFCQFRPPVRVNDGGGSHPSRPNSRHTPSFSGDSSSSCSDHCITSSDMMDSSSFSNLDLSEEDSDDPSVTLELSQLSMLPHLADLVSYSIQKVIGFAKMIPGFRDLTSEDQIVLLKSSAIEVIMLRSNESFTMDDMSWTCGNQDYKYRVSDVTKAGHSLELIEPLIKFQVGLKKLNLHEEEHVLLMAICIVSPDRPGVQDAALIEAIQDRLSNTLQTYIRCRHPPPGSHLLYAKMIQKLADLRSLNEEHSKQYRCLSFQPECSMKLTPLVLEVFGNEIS
# GST-VDR = molecular target: T2, GST-VDR (UniProt P11473); experiment: pull-down; purified GST-VDR incubated with purified His-Parkin for two h; pulled down by glutathione beads, immunoblot; both purified
# T2 sequence: T1 sequence
# [1] = molecular target: T3, Vitamin D receptor (VDR), endogenous in HCT116 (human (endogenous in HCT116)) (UniProt P11473); experiment: co-IP; cytoplasm and nucleus of HCT116 isolated, then immunoprecipitated and immunoblotted
# T3 sequence: T1 sequence
substance,measurement,setting,value
HA-Parkin (293T) (from UniProt O60260 1-465),binding,Flag-Vdr (293T),binds
His-Parkin (from UniProt O60260 1-465),binding,GST-VDR,binds
"Parkin, endogenous in HCT116 (from UniProt O60260 1-465)",binding,[1],binds
